In PubChem BioAssay AID328 (DTP/NCI, 2004):
The list does not hold the whole screen: it is rich in T/C values a quarter to a half above the control, in often repeated tests (any T/C) and in doses without a T/C. Further doses and runs are listed elsewhere. T/C gives the treated animals as a percentage of the vehicle group. Some entries give survivors of the animals treated and no T/C: the source holds a T/C of zero for them, seemingly a mark for toxic or unscored doses. Some doses without a T/C left all or most animals alive at the check, yet need not have been tolerated: survival well below the control is almost never listed, so the zero probably covers shortened survival too. Counts of survivors are from the toxicity check (mostly the fifth day) where no day follows; animals may have died later. Schedule codes are those of the source, taken here to give the interval after Q, in days (D) or hours (H), and the number of doses after X. Some entries hold several experiments; their values stand side by side, smallest first. Where survival is the endpoint, the PubChem record calls one and a half times the control and up active, and a quarter to a half above the control has no call in these data; cut-offs in other NCI protocols can differ. Brackets with × give the number of equal values in this list. Some T/C values carry the count of animals alive at the toxicity check (mostly the fifth day); where none is given, no animal had died by that day.

Test system: BDF1 mice, P388 leukemia ip, median survival T/C
Test: NCI In Vivo Anticancer Drug Screen. Data for tumor model P388 Leukemia (intraperitoneal) in B6D2F1 (BDF1) mice
Conditions: T/C endpoint: median survival time, higher T/C = longer survival
In short: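 Transplantable tumour in mice; compound vs vehicle dosing; survival scored; ratio of treated to control reported.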

[1] = dose: 12.5 mg/kg/injection, schedule: Q01DX009 (ip), vehicle: Klucel (hydroxypropylcellulose) (HPC)
[2] = dose: 25.0 mg/kg/injection, schedule: Q01DX009 (ip), vehicle: Klucel (hydroxypropylcellulose) (HPC)
[3] = dose: 12.5 mg/kg/injection, schedule: Q01DX009 (ip), vehicle: saline with Tween-80
[4] = dose: 25.0 mg/kg/injection, schedule: Q01DX009 (ip), vehicle: saline with Tween-80
[5] = dose: 37.5 mg/kg/injection, schedule: Q01DX009 (ip), vehicle: saline
[6] = dose: 50.0 mg/kg/injection, schedule: Q01DX009 (ip), vehicle: saline with Tween-80
[7] = dose: 100.0 mg/kg/injection, schedule: Q01DX009 (ip), vehicle: saline with Tween-80
[8] = dose: 400.0 mg/kg/injection, schedule: Q04DX003 (ip), vehicle: saline with Tween-80
[9] = dose: 100.0 mg/kg/injection, schedule: Q01DX009 (ip), vehicle: saline
[10] = dose: 200.0 mg/kg/injection, schedule: Q01DX009 (ip), vehicle: saline with Tween-80
[11] = dose: 200.0 mg/kg/injection, schedule: Q01DX009 (ip), vehicle: Klucel (hydroxypropylcellulose) (HPC)

SMILES: NC(=O)c1nccnc1Cl
- survivor count (dose: 400.0 mg/kg/injection, schedule: Q01DX009 (ip), vehicle: saline with Tween-80): 3 of 6

SMILES: Cc1cc(C)c(-c2c(C)cc(C)c(C(=O)c3ccc([N+](=O)[O-])cc3)c2C)c(C)c1C(=O)c1ccc([N+](=O)[O-])cc1
- survivor count [1]: 6 of 6
- survivor count [2]: 6 of 6

SMILES: CN1Cc2cc3cc(c2O)C[N+](C)(C)Cc2c(Cl)c(c(Cl)c(c2Cl)C[N+](C)(C)C3)C1
- T/C (dose: 12.5 mg/kg/injection, schedule: Q01DX009 (ip), vehicle: saline): 127 % of control
- survivor count (dose: 100.0 mg/kg/injection, schedule: Q01DX001 (ip), vehicle: saline): 1 of 6

SMILES: c1cc[c]([Sn]([c]2ccccc2)([c]2ccccc2)[n]2cncn2)cc1
- survivor count [3]: 3 of 3

SMILES: C=C(C(=O)OC1C/C(C)=C/C(O)C/C(C)=C/C2OC(=O)C(=C)C21)C(C)O (centres undefined)
- survivor count (dose: 200.0 mg/kg/injection, schedule: Q04DX002 (ip), vehicle: Klucel (hydroxypropylcellulose) (HPC)): 6 of 6
- survivor count (dose: 400.0 mg/kg/injection, schedule: Q04DX002 (ip), vehicle: Klucel (hydroxypropylcellulose) (HPC)): 0 of 6

SMILES: CC[CH2][Pb]([CH2]CC)([CH2]CC)[N]1C(=O)c2ccccc2C1=O
- T/C [1]: 126 % of control
- survivor count [2]: 6 of 6

SMILES: CCCCC(CC)(CC(=O)O)CC(=O)O
- T/C (dose: 80.0 mg/kg/injection, schedule: Q01DX010 (ip), vehicle: water): 127 % of control

SMILES: COc1ccc2nc3c(Cl)c(Cl)c(=O)c(Cl)c-3sc2c1
- survivor count (dose: 50.0 mg/kg/injection, schedule: Q01DX005 (ip), vehicle: saline with Tween-80): 4 of 6

SMILES: CO[C@@H]1[C@H](O)CC[C@]2(CO2)[C@H]1[C@@]1(C)O[C@@H]1CC=C(C)C
- survivor count (dose: 3.13 mg/kg/injection, schedule: Q01DX009 (ip), vehicle: saline): 6 of 6
- survivor count (dose: 6.25 mg/kg/injection, schedule: Q01DX009 (ip), vehicle: saline): 6 of 6
- T/C [4]: 130 % of control
- survivor count (dose: 25.0 mg/kg/injection, schedule: Q01DX009 (ip), vehicle: saline): 6 of 6
- survivor count [5]: 6 of 6

SMILES: C=C1C(=O)O[C@H]2C/C(C)=C/CC/C(CO)=C/[C@@H](O)[C@H]12
- T/C (dose: 11.0 mg/kg/injection, schedule: Q01DX009 (ip), vehicle: alcohol): 130 % of control
- T/C (dose: 22.0 mg/kg/injection, schedule: Q01DX009 (ip), vehicle: alcohol): 125 % of control
- survivor count (dose: 75.0 mg/kg/injection, schedule: Q01DX009 (ip), vehicle: alcohol): 3 of 6
- survivor count (dose: 110.0 mg/kg/injection, schedule: Q01DX009 (ip), vehicle: alcohol): 0 of 6

SMILES: CC(C)C(=O)[O][Pb]([c]1ccccc1)([c]1ccccc1)[c]1ccccc1
- survivor count [4]: 5 of 6
- survivor count [6]: 2 of 6
- survivor count [7]: 0 of 6

SMILES: CCSc1ncc(Br)c(Sc2nc(N)nc3nc[nH]c23)n1
- T/C (dose: 16.5 mg/kg/injection, schedule: Q04DX003 (ip), vehicle: saline with Tween-80): 137 % of control
- T/C (dose: 25.0 mg/kg/injection, schedule: Q04DX003 (ip), vehicle: saline with Tween-80): 141 % of control
- T/C (dose: 37.5 mg/kg/injection, schedule: Q04DX003 (ip), vehicle: saline with Tween-80): 141 % of control
- survivor count (dose: 200.0 mg/kg/injection, schedule: Q04DX003 (ip), vehicle: saline with Tween-80): 6 of 6
- survivor count [8]: 5 of 6

SMILES: Cc1cc([N+](=O)[O-])cc([N+](=O)[O-])c1OC(=O)c1ccc(N=C(N)N)cc1
- T/C (dose: 50.0 mg/kg/injection, schedule: Q01DX009 (ip), vehicle: saline): 125 % of control
- T/C [9]: 140 % of control
- survivor count (dose: 200.0 mg/kg/injection, schedule: Q01DX009 (ip), vehicle: saline): 3 of 6
- survivor count (dose: 400.0 mg/kg/injection, schedule: Q04DX003 (ip), vehicle: saline): 2 of 6

SMILES: C=CC1CN2CCC1CC2C(O)c1ccnc2ccccc12 (centres undefined)
- survivor count [8]: 0 of 6

SMILES: CC(=O)Nc1nc(Cl)c([N+](=O)[O-])c(SCc2ccccc2)n1
- survivor count [10]: 2 of 6
- survivor count [8]: 0 of 6

SMILES: Cc1c2ccccc2cc2cccc[n+]12
- T/C (dose: 5.0 mg/kg/injection, schedule: Q01DX010 (ip), vehicle: saline): 125 (2×) and 136 % of control
- T/C (dose: 10.0 mg/kg/injection, schedule: Q01DX010 (ip), vehicle: saline): 147 % of control
- T/C (dose: 20.0 mg/kg/injection, schedule: Q04DX003 (ip), vehicle: saline): 130 % of control
- survivor count (dose: 40.0 mg/kg/injection, schedule: Q01DX010 (ip), vehicle: saline): 0 of 6 and 4 of 6
- survivor count (dose: 80.0 mg/kg/injection, schedule: Q01DX010 (ip), vehicle: saline): 0 of 6

SMILES: OCCOc1c(Cl)cc(Cl)cc1Cl
- survivor count [8]: 6 of 6

SMILES: N#CC(Br)C(N)=O (centres undefined)
- survivor count (dose: 10.0 mg/kg/injection, schedule: Q01DX009 (ip), vehicle: saline): 3 of 6
- survivor count (dose: 20.0 mg/kg/injection, schedule: Q01DX009 (ip), vehicle: saline): 0 of 6

SMILES: Cc1noc2nccnc12
- survivor count [7]: 5 of 6

SMILES: Clc1nc2nnnn2c2ccccc12
- survivor count (dose: 80.0 mg/kg/injection, schedule: Q01DX009 (ip), vehicle: saline): 3 of 7

SMILES: O=C(O)c1cc(-c2ccc(Cl)cc2)nc2c(Cl)cccc12
- survivor count [11]: 6 of 6
- survivor count (dose: 400.0 mg/kg/injection, schedule: Q04DX003 (ip), vehicle: Klucel (hydroxypropylcellulose) (HPC)): 0 of 6

SMILES: COC1=NCN=C2SC=C(N)N=C12
- survivor count [9]: 3 of 6

SMILES: CCOC1=Cc2c(oc3c(C(C)(C)C)cc(OCC)cc23)OC(C(C)(C)C)=C1
- T/C [3]: 142 % of control
- survivor count [6]: 5 of 6
- survivor count [7]: 1 of 6
- survivor count [10]: 0 of 6

SMILES: Cn1c(=N)ccn(C2OC(CO)C(O)C2O)c1=O (centres undefined) (tested in a mixture with another compound)
- T/C (dose: 100.0 mg/kg/injection, schedule: Q04DX003 (ip), vehicle: saline): 130 % of control

SMILES: CN(C)/N=N/c1[nH]ncc1C(N)=O
- survivor count [11]: 5 of 6
- survivor count (dose: 400.0 mg/kg/injection, schedule: Q04DX003 (ip), vehicle: alcohol): 6 of 6

SMILES: O=S(=O)(NC(=S)Nc1ccc(Cl)cc1)c1ccccc1
- survivor count [11]: 6 of 6

SMILES: CCN(CC)P(=O)(N1CC1C)N1CC1C (centres undefined)
- T/C (dose: 13.2 mg/kg/injection, schedule: Q01DX009 (ip), vehicle: saline): 135 % of control
- T/C (dose: 18.7 mg/kg/injection, schedule: Q01DX009 (ip), vehicle: saline): 135 % of control
- T/C (dose: 30.0 mg/kg/injection, schedule: Q01DX009 (ip), vehicle: saline): 129 % of control
- T/C [5]: 145 % of control
- T/C (dose: 45.0 mg/kg/injection, schedule: Q01DX009 (ip), vehicle: saline): 146 % of control [5 of 6 alive]
- T/C (dose: 50.0 mg/kg/injection, schedule: Q04DX003 (ip), vehicle: saline): 145 % of control
- survivor count (dose: 60.0 mg/kg/injection, schedule: Q01DX009 (ip), vehicle: saline): 6 of 6
- survivor count (dose: 75.0 mg/kg/injection, schedule: Q01DX009 (ip), vehicle: saline): 6 of 6

SMILES: COc1cccc2c1C(=N)c1c(O)c3c(c(O)c1C2=O)C[C@@](O)(C(C)=O)C[C@@H]3OC1CC(N)C(O)C(C)O1 (some centres undefined)
- T/C (dose: 16.0 mg/kg/injection, schedule: Q04DX003 (ip), vehicle: saline): 140 % of control

SMILES: O=C(Cn1ccc(=O)[nH]c1=O)c1ccc(Cl)s1
- T/C [6]: 132 % of control

SMILES: COc1cccc2c1C(=O)c1c(O)c3c(c(O)c1C2=O)C[C@@](O)(/C(C)=N/NC(=O)c1ccc(Cl)c(Cl)c1)C[C@@H]3OC1CC(N)C(O)C(C)O1 (some centres undefined)
- T/C (dose: 0.5 mg/kg/injection, schedule: Q01DX009 (ip), vehicle: water): 127 % of control
- T/C (dose: 8.0 mg/kg/injection, schedule: Q01DX009 (ip), vehicle: water): 130 % of control
